Source: paper PMC10140023
These are yes or no findings as the source states them, for the method shown. Binding seen in cells or lysates may run through a third protein. Some results given as binding are weak or reduced against the parent protein; the word gives no strength.

By UniProt entry, the sequences of proteins in these tests, tags left out.
UniProt P01106: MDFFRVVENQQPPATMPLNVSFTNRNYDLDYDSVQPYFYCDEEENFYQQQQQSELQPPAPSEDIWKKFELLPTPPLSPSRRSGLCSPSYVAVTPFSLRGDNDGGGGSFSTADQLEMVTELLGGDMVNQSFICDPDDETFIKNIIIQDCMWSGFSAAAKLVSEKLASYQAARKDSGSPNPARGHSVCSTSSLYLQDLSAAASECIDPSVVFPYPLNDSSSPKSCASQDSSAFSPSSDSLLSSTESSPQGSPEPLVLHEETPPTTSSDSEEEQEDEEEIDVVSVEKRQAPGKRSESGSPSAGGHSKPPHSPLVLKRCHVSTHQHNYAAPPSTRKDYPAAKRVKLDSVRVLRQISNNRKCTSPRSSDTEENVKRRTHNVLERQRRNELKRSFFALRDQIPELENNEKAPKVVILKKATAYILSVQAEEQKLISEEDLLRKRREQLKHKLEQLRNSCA
UniProt Q969H0: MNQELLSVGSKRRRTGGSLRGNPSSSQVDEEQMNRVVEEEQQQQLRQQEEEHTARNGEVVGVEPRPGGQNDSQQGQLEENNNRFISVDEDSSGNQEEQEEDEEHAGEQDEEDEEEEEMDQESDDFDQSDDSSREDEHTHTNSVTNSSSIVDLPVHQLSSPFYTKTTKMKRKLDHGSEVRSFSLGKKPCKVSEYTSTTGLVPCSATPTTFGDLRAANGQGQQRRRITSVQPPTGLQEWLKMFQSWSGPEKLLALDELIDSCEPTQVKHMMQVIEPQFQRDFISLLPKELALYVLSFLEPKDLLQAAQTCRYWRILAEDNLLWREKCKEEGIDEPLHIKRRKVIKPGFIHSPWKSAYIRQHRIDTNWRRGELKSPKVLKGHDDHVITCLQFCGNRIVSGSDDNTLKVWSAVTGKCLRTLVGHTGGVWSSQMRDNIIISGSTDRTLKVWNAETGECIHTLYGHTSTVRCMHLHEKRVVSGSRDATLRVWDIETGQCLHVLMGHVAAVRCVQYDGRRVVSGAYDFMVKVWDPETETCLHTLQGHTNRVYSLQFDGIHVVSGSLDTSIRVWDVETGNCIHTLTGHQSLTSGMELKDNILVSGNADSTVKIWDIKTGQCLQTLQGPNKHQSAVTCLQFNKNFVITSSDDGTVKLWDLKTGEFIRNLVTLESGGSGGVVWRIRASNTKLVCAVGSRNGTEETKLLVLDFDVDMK
UniProt P28340: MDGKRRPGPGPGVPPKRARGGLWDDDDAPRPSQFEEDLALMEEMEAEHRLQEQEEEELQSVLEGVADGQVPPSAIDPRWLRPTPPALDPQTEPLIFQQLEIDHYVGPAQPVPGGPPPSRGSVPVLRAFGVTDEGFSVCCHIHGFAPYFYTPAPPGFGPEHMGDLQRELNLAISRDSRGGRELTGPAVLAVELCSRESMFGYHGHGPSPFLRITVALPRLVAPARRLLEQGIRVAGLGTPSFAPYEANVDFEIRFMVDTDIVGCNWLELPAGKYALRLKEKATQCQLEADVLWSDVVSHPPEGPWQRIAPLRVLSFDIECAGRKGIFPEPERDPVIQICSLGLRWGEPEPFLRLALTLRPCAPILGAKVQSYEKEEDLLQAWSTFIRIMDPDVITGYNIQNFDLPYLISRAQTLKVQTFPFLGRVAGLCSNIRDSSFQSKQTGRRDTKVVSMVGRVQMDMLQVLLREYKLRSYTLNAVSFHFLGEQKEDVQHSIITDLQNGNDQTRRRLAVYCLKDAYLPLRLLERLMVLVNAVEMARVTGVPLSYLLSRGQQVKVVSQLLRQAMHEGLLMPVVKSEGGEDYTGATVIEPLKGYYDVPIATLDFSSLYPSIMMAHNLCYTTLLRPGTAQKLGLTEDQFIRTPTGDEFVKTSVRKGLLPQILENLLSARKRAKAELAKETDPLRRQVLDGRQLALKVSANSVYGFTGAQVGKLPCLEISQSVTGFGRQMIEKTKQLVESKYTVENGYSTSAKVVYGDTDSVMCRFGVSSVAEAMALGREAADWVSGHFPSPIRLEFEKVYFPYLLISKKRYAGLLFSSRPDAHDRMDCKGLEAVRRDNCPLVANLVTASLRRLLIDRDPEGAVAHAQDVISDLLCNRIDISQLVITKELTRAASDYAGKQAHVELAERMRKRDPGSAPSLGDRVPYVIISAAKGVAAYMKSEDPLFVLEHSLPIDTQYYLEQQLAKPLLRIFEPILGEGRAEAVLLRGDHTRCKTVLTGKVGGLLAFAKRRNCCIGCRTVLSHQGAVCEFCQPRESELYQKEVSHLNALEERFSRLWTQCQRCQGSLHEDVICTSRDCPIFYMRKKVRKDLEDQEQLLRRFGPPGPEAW

Assays:
[1] = target: MYC (endogenous) (human (endogenous in T24, 5637, UM-UC-3)) (UniProt P01106); assay: proximity ligation; Duolink in situ PLA on fixed 5637 cells, endogenous proteins, confocal microscopy; with or without POLD1 depletion
[2] = target: MYC (endogenous) (human (endogenous in T24, 5637, UM-UC-3)) (UniProt P01106); assay: co-IP; endogenous proteins in T24, 5637 or UM-UC-3 cells (1 x 10^7 cells); IP binding buffer (PBS, 0.3% Tween 20, 75 mM NaCl); some samples with MG132 (10 μM, 6 h), POLD1 and/or FBXW7α knock-down; Western blot
[3] = target: FBXW7α (endogenous) (human (endogenous in T24, 5637, UM-UC-3)) (UniProt Q969H0); assay: as above

FBXW7α (endogenous) (from UniProt Q969H0 1-707)
binding [1]: binds | binding [2]: binds

POLD1 (endogenous) (from UniProt P28340 1-1107)
binding [1]: binds | binding [3]: binds | binding [2]: binds
